Source: the supplement of paper PMC12819154, “High-throughput peptide-centric local stability assay extends protein–ligand identification to membrane proteins, tissues and bacteria” (Nature Structural & Molecular Biology, 2025)
This is one part of the list. Most values lie at the level of the controls, where differences are scatter.

The chains behind the UniProt entries cited, without tags or fusion partners. Where a name states a change or a piece, a line headed by the entry shows the natural chain unless it says otherwise.
UniProt Q14676: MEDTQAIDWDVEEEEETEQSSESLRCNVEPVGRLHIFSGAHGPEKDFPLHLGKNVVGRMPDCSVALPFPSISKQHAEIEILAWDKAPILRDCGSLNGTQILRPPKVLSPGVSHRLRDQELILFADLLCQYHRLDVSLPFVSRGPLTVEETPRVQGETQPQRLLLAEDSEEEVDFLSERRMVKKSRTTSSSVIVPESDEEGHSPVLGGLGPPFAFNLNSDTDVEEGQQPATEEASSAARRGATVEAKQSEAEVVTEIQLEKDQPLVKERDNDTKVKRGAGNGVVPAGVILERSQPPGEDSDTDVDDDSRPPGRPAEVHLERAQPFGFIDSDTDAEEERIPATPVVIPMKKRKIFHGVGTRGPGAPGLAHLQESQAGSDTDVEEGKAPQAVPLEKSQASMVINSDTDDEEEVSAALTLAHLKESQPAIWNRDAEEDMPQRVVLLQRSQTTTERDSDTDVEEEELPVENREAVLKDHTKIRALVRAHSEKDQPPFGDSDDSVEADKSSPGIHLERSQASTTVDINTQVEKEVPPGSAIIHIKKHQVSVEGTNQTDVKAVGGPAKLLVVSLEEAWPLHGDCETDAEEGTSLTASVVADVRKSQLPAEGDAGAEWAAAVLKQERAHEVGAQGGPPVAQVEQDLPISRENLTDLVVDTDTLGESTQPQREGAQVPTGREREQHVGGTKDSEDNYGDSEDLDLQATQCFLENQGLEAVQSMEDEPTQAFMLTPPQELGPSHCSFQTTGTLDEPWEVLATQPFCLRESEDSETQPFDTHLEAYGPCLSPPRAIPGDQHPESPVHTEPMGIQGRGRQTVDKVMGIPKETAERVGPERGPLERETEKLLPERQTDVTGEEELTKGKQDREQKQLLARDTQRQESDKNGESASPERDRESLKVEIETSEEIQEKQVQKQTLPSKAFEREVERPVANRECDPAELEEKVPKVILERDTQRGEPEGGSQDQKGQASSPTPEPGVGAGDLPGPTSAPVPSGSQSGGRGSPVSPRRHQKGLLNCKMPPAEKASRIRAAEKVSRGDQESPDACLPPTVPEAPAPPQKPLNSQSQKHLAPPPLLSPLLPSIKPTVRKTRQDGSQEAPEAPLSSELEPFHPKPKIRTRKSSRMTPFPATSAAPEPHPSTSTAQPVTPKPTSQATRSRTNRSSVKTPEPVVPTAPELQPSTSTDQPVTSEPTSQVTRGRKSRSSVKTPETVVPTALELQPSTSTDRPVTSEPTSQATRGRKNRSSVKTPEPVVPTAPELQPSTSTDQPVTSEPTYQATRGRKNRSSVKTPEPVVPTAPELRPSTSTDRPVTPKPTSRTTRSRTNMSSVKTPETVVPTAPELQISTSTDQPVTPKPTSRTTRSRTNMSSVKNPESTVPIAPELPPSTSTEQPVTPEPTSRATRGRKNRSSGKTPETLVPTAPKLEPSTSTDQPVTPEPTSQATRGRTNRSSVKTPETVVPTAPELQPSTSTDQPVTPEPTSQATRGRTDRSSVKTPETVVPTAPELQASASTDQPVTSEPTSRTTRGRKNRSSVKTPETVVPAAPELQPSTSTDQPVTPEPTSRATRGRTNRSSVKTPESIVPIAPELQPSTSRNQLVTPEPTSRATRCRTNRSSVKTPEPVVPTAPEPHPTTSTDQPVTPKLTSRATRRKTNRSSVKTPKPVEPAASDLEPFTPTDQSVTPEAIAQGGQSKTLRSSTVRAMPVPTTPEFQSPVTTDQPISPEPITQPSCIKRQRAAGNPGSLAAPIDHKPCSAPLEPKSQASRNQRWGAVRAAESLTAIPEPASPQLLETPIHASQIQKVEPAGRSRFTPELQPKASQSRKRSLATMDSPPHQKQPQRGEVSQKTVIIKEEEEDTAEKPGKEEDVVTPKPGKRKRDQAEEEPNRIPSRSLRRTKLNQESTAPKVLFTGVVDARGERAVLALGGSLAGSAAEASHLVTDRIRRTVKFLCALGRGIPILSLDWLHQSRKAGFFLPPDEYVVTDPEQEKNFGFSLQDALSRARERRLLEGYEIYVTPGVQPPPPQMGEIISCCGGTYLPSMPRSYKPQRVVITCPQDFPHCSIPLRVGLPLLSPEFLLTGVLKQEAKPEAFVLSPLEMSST
UniProt Q14192: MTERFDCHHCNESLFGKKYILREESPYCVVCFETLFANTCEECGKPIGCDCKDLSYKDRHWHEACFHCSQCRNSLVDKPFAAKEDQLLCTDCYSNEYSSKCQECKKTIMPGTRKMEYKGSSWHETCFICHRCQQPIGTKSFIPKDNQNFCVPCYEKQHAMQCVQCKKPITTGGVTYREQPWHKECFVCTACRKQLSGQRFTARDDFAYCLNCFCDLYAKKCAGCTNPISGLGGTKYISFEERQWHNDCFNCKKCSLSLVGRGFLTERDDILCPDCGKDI
UniProt Q13151: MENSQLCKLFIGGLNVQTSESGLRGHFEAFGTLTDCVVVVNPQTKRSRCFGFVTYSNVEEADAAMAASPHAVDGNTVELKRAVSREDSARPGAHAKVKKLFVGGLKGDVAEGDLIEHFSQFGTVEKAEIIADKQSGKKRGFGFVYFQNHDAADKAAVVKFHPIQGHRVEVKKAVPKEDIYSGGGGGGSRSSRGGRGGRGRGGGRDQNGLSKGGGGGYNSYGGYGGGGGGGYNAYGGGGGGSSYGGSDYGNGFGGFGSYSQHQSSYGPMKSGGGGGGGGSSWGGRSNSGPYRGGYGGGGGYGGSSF
UniProt Q14129: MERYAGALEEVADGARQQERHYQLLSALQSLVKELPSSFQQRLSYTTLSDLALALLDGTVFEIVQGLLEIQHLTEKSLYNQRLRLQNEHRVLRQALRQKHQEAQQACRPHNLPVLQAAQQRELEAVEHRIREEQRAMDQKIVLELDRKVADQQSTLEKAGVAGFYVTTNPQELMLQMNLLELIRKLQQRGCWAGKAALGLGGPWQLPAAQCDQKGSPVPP
UniProt Q14155: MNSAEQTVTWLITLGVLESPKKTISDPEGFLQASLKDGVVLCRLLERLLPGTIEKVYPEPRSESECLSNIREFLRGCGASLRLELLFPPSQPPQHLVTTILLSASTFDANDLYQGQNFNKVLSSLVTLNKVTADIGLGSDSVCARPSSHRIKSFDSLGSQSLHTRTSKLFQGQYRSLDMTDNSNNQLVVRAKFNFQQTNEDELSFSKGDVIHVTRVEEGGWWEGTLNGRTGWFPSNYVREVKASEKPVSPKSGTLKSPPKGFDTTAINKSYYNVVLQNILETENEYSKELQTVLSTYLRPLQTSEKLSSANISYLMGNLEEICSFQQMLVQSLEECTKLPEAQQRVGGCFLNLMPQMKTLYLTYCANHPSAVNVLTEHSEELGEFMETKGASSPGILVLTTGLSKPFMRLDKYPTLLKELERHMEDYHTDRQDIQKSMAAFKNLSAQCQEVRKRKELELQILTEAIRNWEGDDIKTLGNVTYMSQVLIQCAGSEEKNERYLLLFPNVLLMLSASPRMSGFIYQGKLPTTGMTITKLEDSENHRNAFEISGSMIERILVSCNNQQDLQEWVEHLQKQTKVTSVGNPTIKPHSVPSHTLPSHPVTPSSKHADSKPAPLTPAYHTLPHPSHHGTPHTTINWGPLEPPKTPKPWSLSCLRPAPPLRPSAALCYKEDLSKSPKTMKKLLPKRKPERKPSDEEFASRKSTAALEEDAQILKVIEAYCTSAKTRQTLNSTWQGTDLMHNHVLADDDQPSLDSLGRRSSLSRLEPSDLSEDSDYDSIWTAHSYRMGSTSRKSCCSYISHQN
UniProt Q13127: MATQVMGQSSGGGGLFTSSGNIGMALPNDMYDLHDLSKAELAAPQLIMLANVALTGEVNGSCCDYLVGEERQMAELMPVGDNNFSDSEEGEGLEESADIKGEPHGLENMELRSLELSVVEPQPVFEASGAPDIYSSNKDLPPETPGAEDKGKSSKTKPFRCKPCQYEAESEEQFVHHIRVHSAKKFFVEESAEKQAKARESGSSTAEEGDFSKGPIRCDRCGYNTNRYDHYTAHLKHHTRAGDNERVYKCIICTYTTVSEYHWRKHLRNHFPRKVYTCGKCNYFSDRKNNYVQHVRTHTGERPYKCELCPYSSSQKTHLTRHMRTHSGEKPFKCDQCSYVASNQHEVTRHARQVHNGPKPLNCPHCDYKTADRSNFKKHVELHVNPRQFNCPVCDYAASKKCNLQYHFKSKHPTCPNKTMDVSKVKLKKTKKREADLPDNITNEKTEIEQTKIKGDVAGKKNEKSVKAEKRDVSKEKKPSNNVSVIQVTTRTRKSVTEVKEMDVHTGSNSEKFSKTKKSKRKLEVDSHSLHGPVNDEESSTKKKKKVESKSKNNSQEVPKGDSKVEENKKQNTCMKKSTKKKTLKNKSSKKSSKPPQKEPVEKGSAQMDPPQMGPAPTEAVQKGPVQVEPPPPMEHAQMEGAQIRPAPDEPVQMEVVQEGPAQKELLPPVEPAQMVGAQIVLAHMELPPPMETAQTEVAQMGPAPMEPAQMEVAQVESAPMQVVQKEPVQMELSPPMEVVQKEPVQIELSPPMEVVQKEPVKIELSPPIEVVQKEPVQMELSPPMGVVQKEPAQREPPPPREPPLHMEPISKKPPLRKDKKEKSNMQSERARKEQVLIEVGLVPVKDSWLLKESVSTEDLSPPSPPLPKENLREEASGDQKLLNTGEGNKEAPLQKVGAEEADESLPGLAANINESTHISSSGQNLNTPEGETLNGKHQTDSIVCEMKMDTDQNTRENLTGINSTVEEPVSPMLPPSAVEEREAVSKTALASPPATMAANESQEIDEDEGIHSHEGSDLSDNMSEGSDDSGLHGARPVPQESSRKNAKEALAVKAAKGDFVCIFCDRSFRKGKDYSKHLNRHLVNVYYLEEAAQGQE
UniProt Q14444, whole entry: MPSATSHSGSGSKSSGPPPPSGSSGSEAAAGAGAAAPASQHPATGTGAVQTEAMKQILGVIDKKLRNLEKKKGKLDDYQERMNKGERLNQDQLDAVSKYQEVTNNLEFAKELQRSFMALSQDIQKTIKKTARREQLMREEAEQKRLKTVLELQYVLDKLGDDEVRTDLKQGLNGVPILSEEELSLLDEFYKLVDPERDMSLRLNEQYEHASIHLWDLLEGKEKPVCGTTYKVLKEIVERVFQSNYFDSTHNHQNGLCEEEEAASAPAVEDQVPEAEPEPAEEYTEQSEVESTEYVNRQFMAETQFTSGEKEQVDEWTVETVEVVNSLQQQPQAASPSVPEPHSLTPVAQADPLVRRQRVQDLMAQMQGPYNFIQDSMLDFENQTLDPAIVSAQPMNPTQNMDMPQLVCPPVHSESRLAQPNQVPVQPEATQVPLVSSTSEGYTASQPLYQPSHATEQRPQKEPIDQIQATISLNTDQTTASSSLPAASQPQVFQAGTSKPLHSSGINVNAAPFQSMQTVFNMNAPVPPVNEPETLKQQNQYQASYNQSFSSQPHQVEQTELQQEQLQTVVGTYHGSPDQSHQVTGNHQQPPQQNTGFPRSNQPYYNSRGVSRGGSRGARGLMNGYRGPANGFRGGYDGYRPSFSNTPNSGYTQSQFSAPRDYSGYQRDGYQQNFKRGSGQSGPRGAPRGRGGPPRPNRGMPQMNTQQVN
UniProt Q13342: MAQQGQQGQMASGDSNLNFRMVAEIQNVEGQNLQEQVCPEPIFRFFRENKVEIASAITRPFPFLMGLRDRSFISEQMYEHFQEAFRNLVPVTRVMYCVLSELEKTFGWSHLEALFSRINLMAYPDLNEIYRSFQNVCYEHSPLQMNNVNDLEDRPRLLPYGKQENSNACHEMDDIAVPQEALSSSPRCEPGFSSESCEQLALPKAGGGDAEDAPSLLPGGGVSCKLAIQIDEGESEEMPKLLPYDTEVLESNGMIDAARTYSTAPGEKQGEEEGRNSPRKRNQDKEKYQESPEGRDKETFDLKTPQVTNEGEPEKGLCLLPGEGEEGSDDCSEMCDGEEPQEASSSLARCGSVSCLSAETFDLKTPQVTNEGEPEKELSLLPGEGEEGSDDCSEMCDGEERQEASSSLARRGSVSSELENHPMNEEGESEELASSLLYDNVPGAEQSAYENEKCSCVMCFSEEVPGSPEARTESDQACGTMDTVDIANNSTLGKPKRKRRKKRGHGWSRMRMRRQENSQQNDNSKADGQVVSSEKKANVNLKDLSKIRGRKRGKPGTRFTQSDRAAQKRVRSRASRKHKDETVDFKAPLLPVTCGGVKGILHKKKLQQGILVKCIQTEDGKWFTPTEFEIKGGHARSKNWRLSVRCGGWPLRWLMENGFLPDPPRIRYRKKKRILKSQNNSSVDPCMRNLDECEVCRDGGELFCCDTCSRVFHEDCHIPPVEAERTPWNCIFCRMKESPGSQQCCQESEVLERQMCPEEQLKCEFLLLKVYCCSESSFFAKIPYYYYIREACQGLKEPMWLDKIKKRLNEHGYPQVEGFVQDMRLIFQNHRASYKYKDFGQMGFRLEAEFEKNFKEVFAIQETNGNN
UniProt Q15005: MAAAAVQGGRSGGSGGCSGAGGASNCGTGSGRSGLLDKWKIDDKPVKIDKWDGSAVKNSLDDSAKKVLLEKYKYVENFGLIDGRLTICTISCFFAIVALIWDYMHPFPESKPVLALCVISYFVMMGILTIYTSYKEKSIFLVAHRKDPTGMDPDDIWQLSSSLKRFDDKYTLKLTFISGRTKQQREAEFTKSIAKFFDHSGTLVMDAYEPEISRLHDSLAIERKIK

compound: Cc1nc(Nc2ncc(C(=O)Nc3c(C)cccc3Cl)s2)cc(N2CCN(CCO)CC2)n1 [dasatinib]; assay: log2 fold change of tryptic peptide abundance, ligand vs vehicle (limited proteolysis) (log2 ratio); higher = more trypsin-susceptible (destabilized); details: ligand concentration: 5 uM; sample: K562 cleared lysate

Target	log2 fold change
RASA3 (peptide sequence: TKYGSQEHPIGDK, peptide start residue: 805) (UniProt Q14644)	0.288
CHAF1A (peptide sequence: QHSSTSPFPTSTPLRR, peptide start residue: 305) (UniProt Q13111)	-0.503
NOLC1 (peptide sequence: VAGGAAPSKPASAK, peptide start residue: 497) (UniProt Q14978)	0.129
PRPF4B (peptide sequence: ELEFLKK, peptide start residue: 732) (UniProt Q13523)	0.241
TRIM28 (peptide sequence: GRVLVNDAQKVTEGQQER, peptide start residue: 310) (UniProt Q13263)	0.185
MDC1 (peptide sequence: EGAQVPTGR, peptide start residue: 664) (UniProt Q14676)	0.16
FHL2 (peptide sequence: QWHNDCFNCKKCSLSLVGR, peptide start residue: 243) (UniProt Q14192)	-0.549
ARHGAP19 (peptide sequence: HEKPEIFTELVVSNITR, peptide start residue: 51) (UniProt Q14CB8)	-0.591
CHAF1B (peptide sequence: TLQPSSQNTK, peptide start residue: 468) (UniProt Q13112)	0.105
HNRNPA0 (peptide sequence: GFGFVYFQNHDAADK, peptide start residue: 140) (UniProt Q13151)	0.135
SKP2 (peptide sequence: LLSQGVIAFR, peptide start residue: 155) (UniProt Q13309)	-0.151
PPFIA1 (peptide sequence: CSLLEEELGATHK, peptide start residue: 189) (UniProt Q13136)	-0.163
UniProt Q13885 (peptide sequence: INVYYNEAAGNKYVPR, peptide start residue: 47)	-0.0359
DYNC1H1 (peptide sequence: TFDHYCEYR, peptide start residue: 2634) (UniProt Q14204)	-0.27
TFDP2 (peptide sequence: KFIDSDFSESKR, peptide start residue: 110) (UniProt Q14188)	0.167
GNL2 (peptide sequence: FQEEMDTVMKDPYKVVMK, peptide start residue: 95) (UniProt Q13823)	-0.16
UniProt Q14129 (peptide sequence: VADQQSTLEK, peptide start residue: 149)	0.254
BIRC2 (peptide sequence: AGFYYTGVNDK, peptide start residue: 70) (UniProt Q13490)	0.464
UniProt Q14324 (peptide sequence: KPDSVSVETGK, peptide start residue: 57)	0.768

Some values from the entries so far.
log2 fold change, NOLC1 (peptide sequence: VAGGAAPSKPASAK, peptide start residue: 497) (UniProt Q14978) reads 0.129
log2 fold change, FHL2 (peptide sequence: QWHNDCFNCKKCSLSLVGR, peptide start residue: 243) (UniProt Q14192) reads -0.549
log2 fold change, BIRC2 (peptide sequence: AGFYYTGVNDK, peptide start residue: 70) (UniProt Q13490) reads 0.464

Additional results follow:

Target	log2 fold change
ARHGEF7 (peptide sequence: NLSAQCQEVR, peptide start residue: 443) (UniProt Q14155)	-0.145
TCOF1 (peptide sequence: GSLGSQGAKDEPEEELQK, peptide start residue: 1406) (UniProt Q13428)	-0.152
REST (peptide sequence: MDTDQNTR, peptide start residue: 949) (UniProt Q13127)	-0.338
UniProt Q14444 (peptide sequence: QILGVIDK, peptide start residue: 56)	-0.136
SLBP (peptide sequence: LLINDFGR, peptide start residue: 99) (UniProt Q14493)	-0.0715
UniProt Q13242 (peptide sequence: HGLVPFAFVR, peptide start residue: 49)	-0.146
UniProt Q13106 (peptide sequence: VHTGEKPYECTECGK, peptide start residue: 538)	-0.0407
SLMAP (peptide sequence: DVQKEYEK, peptide start residue: 749) (UniProt Q14BN4)	0.728
PPP2R5D (peptide sequence: LFDDCTQQYKAEK, peptide start residue: 480) (UniProt Q14738)	0.146
FAM50A (peptide sequence: WEPYDPEKK, peptide start residue: 324) (UniProt Q14320)	-0.208
MBTPS1 (peptide sequence: HLGDRLEK, peptide start residue: 20) (UniProt Q14703)	-0.144
UniProt Q13342 (peptide sequence: KHKDETVDFK, peptide start residue: 577)	-0.136
PLD1 (peptide sequence: PHADTGSIR, peptide start residue: 620) (UniProt Q13393)	0.126
EIF3A (peptide sequence: RGDDSRPGPWR, peptide start residue: 1160) (UniProt Q14152)	0.441
CHD4 (peptide sequence: HDYWLLAGIINHGYAR, peptide start residue: 1733) (UniProt Q14839)	-0.91
TTLL12 (peptide sequence: HFTVMNYDPDVVLK, peptide start residue: 511) (UniProt Q14166)	-0.336
DHRS2 (peptide sequence: VNCVVPGIIKTDFSK, peptide start residue: 210) (UniProt Q13268)	-0.427
SPCS2 (peptide sequence: SGLLDKWK, peptide start residue: 33) (UniProt Q15005)	0.0593
